The chains behind the UniProt entries cited, without tags or fusion partners. Residues count along the entry.
UniProt P05067, 672-711 limits assumed: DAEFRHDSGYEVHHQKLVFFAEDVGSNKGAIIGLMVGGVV

According to patent US20120201757A1 (published 2012):

How the values were obtained:
[1] = target: T1, human Aβ40 (human, UniProt P05067 672-711); assay: plate binding assay, Abs (450nm), Aβ40 titrated 0-25 nM
T1 construct: domain: Aβ1-40; also called Aβ1-40; amyloid-beta peptide 1-40

[2] = target: tPA (human, UniProt P00750 36-562, limits assumed); assay: plate binding assay, Abs (450nm), ligand titrated 0-200 nM on immobilized GAR-LRPIV

- EC50 (read off the curve) [1]: ~2 nM
- binding result [2]: binds
B1: GAR-LRPIV (receptor)
chain: GARSNCTASQFVCKNDKCIPFWWKCDTEDDCGDHSDEPPDCPEFKCRPGQFQCSTGICTNPAFICDGDNDCQDNSDEANCDIHVCLPSQFKCTNTNRCIPGIFRCNGQDNCGDGEDERDCPEVTCAPNQFQCSITKRCIPRVWVCDRDNDCVDGSDEPANCTQMTCGVDEFRCKDSGRCIPARWKCDGEDDCGDGSDEPKEECDERTCEPYQFRCKNNRCVPGRWQCDYDNDCGDNSDEESCTPRPCSESEFSCANGRCIAGRWKCDGDHDCADGSDEKDCTPRCDMDQFQCKSGHCIPLRWRCDADADCMDGSDEEACGTGVRTCPLDEFQCNNTLCKPLAWKCDGEDDCGDNSDENPEECARFVCPPNRPFRCKNDRVCLWIGRQCDGTDNCGDGTDEEDCEPPTAHTTHCKDKKEFLCRNQRCLSSSLRCNMFDDCGDGSDEEDCSI
notes: Soluble, untagged cluster IV (CR21-CR31) of human LRP-1, secreted from CHO cells through a tPA signal peptide and purified on a GST-RAP column; also called wt-LRPIV; WT-LRPIV
